Measured values published in the supplement of paper PMC3682954.
Several values for one entry are separate records, joined by “and”; a condition that tells them apart may be missing. Equal values may be shown once. Where a name gives a salt, the structure may show the parent alone. ± gives the standard deviation of the averaged measurements. This is one part of the list. Most values come without repeats; read them as rough.

Tested on: RAW 264.7
Assay: HMGB1-induced TNF-alpha production relative to HMGB1-stimulated control; higher = more TNF-alpha secretion (less inhibition)
Settings: stimulus: HMGB1 5 ug/ml, 18 h
[1] = compound concentration: 1 ug/ml

Q: N[C@@H](Cc1ccc(O)c(O)c1)C(=O)O [Levodopa] was tested. Which “HMGB1-induced TNF-alpha production” value (compound concentration: 3 uM) did it give?
A: 101 ± 40%

Q: For N[C@@H](Cc1ccc(O)c(O)c1)C(=O)O [L-3,4-Dihydroxyphenylalanine], which “HMGB1-induced TNF-alpha production” value (compound concentration: 3 uM) is on record?
A: 92.5%

Q: With N[C@@H](Cc1ccc(O)c(O)c1)C(=O)O as the molecule, how does the “HMGB1-induced TNF-alpha production” value (compound concentration: 3 uM) read?
A: 96.3%

Q: For CCCCc1ncc(/C=C(\Cc2cccs2)C(=O)O)n1Cc1ccc(C(=O)O)cc1 [Eprosartan], which “HMGB1-induced TNF-alpha production” value (compound concentration: 3 uM) is on record?
A: 113%

Q: With O=C(NC(Cc1cc(=O)[nH]c2ccccc12)C(=O)O)c1ccc(Cl)cc1 (stereo not given) as the molecule, how does the “HMGB1-induced TNF-alpha production” value (compound concentration: 3 uM) read?
A: 84.1%

Q: O=C(NC(Cc1cc(=O)[nH]c2ccccc12)C(=O)O)c1ccc(Cl)cc1 (stereo not given) [Rebamipide] was tested. Which “HMGB1-induced TNF-alpha production” value (compound concentration: 3 uM) did it give?
A: 84.3 ± 3.2%

Q: With CCN1C(=O)C=CC1=O [N-Ethylmaleimide] as the molecule, how does the “HMGB1-induced TNF-alpha production” value (compound concentration: 3 uM) read?
A: 78.6%

Q: For CC(C)(C)NC[C@H](O)COc1cccc2c1CCCC2=O [(-) -Levobunolol hydrochloride], which “HMGB1-induced TNF-alpha production” value (compound concentration: 3 uM) is on record?
A: 98.5%

Q: With C[N+](C)(C)CCOC(N)=O [Carbachol] as the molecule, how does the “HMGB1-induced TNF-alpha production” value (compound concentration: 3 uM) read?
A: 85.2 ± 6.6%

Q: Which “HMGB1-induced TNF-alpha production” value (compound concentration: 3 uM) does the source give for C[N+](C)(C)CCOC(N)=O here?
A: 103%

Q: For C[N+](C)(C)CCOC(N)=O [Carbamylcholine], which “HMGB1-induced TNF-alpha production” value (compound concentration: 3 uM) is on record?
A: 108%

Q: For Nc1ncn(C2OC(CO)C(O)C2O)c(=O)n1 (stereo not given) [Azacytidine-5], which “HMGB1-induced TNF-alpha production” value (compound concentration: 3 uM) is on record?
A: 260%

Q: With O=C(O)c1coc2ccc(F)cc2c1=O [6-Fluorochromone-3-carboxylic acid] as the molecule, how does the “HMGB1-induced TNF-alpha production” value [1] read?
A: 68%

Q: CCOC(=O)C1=C(C)NC(C)=C(C(=O)OC)C1c1cccc(Cl)c1Cl (stereo not given) [Felodipine] was tested. Which “HMGB1-induced TNF-alpha production” value (compound concentration: 3 uM) did it give?
A: 87.3 ± 21%

Q: C[C@H](CCC(=O)O)[C@H]1CC[C@H]2[C@@H]3C(=O)C[C@@H]4CC(=O)CC[C@]4(C)[C@H]3CC(=O)[C@]12C was tested. Which “HMGB1-induced TNF-alpha production” value (compound concentration: 3 uM) did it give?
A: 80.4% and 95.4%

Q: How did the “HMGB1-induced TNF-alpha production” value [1] turn out when C[C@H](CCC(=O)O)[C@H]1CC[C@H]2[C@@H]3C(=O)C[C@@H]4CC(=O)CC[C@]4(C)[C@H]3CC(=O)[C@]12C [Dehydrocholic acid] was run?
A: 69.3%

Q: And the “HMGB1-induced TNF-alpha production” value (compound concentration: 3 uM)?
A: 59.5%

Q: For CO[C@H]1C[C@H](O[C@@H]2/C(C)=C/C[C@@H]3C[C@@H](C[C@]4(CC[C@H](C)[C@@H](C5CCCCC5)O4)O3)OC(=O)[C@@H]3C=C(C)/C(=N/O)[C@H]4OC/C(=C\C=C\[C@@H]2C)[C@]43O)O[C@@H](C)[C@@H]1O, which “HMGB1-induced TNF-alpha production” value (compound concentration: 3 uM) is on record?
A: 68.9%

Q: Cc1nc2sccn2c(=O)c1CCN1CCC(=C(c2ccc(F)cc2)c2ccc(F)cc2)CC1 was tested. Which “HMGB1-induced TNF-alpha production” value (compound concentration: 3 uM) did it give?
A: 65.4%

Q: Cc1nc2sccn2c(=O)c1CCN1CCC(=C(c2ccc(F)cc2)c2ccc(F)cc2)CC1 [Ritanserin] was tested. Which “HMGB1-induced TNF-alpha production” value (compound concentration: 3 uM) did it give?
A: 87.1%

Q: With O=C1c2c(O)ccc(O)c2C(=O)c2c(NCCNCCO)ccc(NCCNCCO)c21 as the molecule, how does the “HMGB1-induced TNF-alpha production” value (compound concentration: 3 uM) read?
A: 18.7 ± 14%

Q: With O=C1c2c(O)ccc(O)c2C(=O)c2c(NCCNCCO)ccc(NCCNCCO)c21 [Mitoxantrone dihydrochloride] as the molecule, how does the “HMGB1-induced TNF-alpha production” value (compound concentration: 3 uM) read?
A: 22.2%

Q: O=C1c2c(O)ccc(O)c2C(=O)c2c(NCCNCCO)ccc(NCCNCCO)c21 [Mitoxantrone] was tested. Which “HMGB1-induced TNF-alpha production” value (compound concentration: 3 uM) did it give?
A: 50.1 ± 4%

Q: CN(C(=O)CCCOc1ccc2[nH]c(=O)ccc2c1)C1CCCCC1 [Cilostamide] was tested. Which “HMGB1-induced TNF-alpha production” value (compound concentration: 3 uM) did it give?
A: 88.3 ± 13%

Q: How did the “HMGB1-induced TNF-alpha production” value (compound concentration: 3 uM) turn out when NNC(=O)c1ccncc1 [Isoniazid] was run?
A: 89 ± 32%

Q: How did the “HMGB1-induced TNF-alpha production” value (compound concentration: 3 uM) turn out when NNC(=O)c1ccncc1 was run?
A: 102%

Q: For CCC(=O)OCC(=O)[C@@]1(OC(=O)CC)[C@@H](C)C[C@H]2[C@@H]3CCC4=CC(=O)C=C[C@]4(C)[C@@]3(F)[C@@H](O)C[C@@]21C, which “HMGB1-induced TNF-alpha production” value (compound concentration: 3 uM) is on record?
A: 42.6%

Q: With CC1(C)O[C@@H]2C[C@H]3[C@@H]4C[C@H](F)C5=CC(=O)CC[C@]5(C)[C@H]4[C@@H](O)C[C@]3(C)[C@]2(C(=O)CO)O1 [Flurandrenolide] as the molecule, how does the “HMGB1-induced TNF-alpha production” value (compound concentration: 3 uM) read?
A: 35.7%

Q: For CC1(C)O[C@@H]2C[C@H]3[C@@H]4C[C@H](F)C5=CC(=O)CC[C@]5(C)[C@H]4[C@@H](O)C[C@]3(C)[C@]2(C(=O)CO)O1, which “HMGB1-induced TNF-alpha production” value (compound concentration: 3 uM) is on record?
A: 33.5%

Q: Which “HMGB1-induced TNF-alpha production” value (compound concentration: 3 uM) does the source give for O=C(O)c1cccnc1 here?
A: 76.9%

Q: How did the “HMGB1-induced TNF-alpha production” value (compound concentration: 3 uM) turn out when O=C(O)c1cccnc1 [Niacin] was run?
A: 95.6%

Q: With CCCCc1oc2ccccc2c1C(=O)c1cc(I)c(OCCN(CC)CC)c(I)c1 [Amiodarone] as the molecule, how does the “HMGB1-induced TNF-alpha production” value (compound concentration: 3 uM) read?
A: 91.9%

Q: CCCCc1oc2ccccc2c1C(=O)c1cc(I)c(OCCN(CC)CC)c(I)c1 [Amiodarone hydrochloride] was tested. Which “HMGB1-induced TNF-alpha production” value (compound concentration: 3 uM) did it give?
A: 82.9 ± 9.2%

Q: CCCCc1oc2ccccc2c1C(=O)c1cc(I)c(OCCN(CC)CC)c(I)c1 was tested. Which “HMGB1-induced TNF-alpha production” value (compound concentration: 3 uM) did it give?
A: 96.8 ± 1.2%

Q: Which “HMGB1-induced TNF-alpha production” value (compound concentration: 3 uM) does the source give for O=c1[nH]c(=O)n([C@H]2C[C@H](O)[C@@H](CO)O2)cc1I [Idoxuridine] here?
A: 79.6 ± 17%

Q: How did the “HMGB1-induced TNF-alpha production” value [1] turn out when Cc1cccc(-c2cc(=O)c3cc(Br)ccc3o2)c1 [6-Bromo-3'-methylflavone] was run?
A: 72.2%

Q: For COc1cc(C(=O)OC2CC3CCC2(C)C3(C)C)ccc1O (stereo not given), which “HMGB1-induced TNF-alpha production” value [1] is on record?
A: 73.7%

Q: Cc1cccc(N(C)C(=S)Oc2ccc3ccccc3c2)c1 [Tolnaftate] was tested. Which “HMGB1-induced TNF-alpha production” value (compound concentration: 3 uM) did it give?
A: 28.9%

Q: How did the “HMGB1-induced TNF-alpha production” value (compound concentration: 3 uM) turn out when Cc1cccc(N(C)C(=S)Oc2ccc3ccccc3c2)c1 was run?
A: 70.1%

Q: N[C@@H](COP(=O)(O)O)C(=O)O [O-Phospho-L-serine] was tested. Which “HMGB1-induced TNF-alpha production” value (compound concentration: 3 uM) did it give?
A: 107%

Q: How did the “HMGB1-induced TNF-alpha production” value [1] turn out when CC1(C)OC2[C@@H](O1)[C@H](n1cnc3c(N)ncnc31)O[C@@H]2CO (stereo not given in full) [2',3'-O-Isopropylideneadenosine] was run?
A: 74.2%

Q: For CCN1CCCC1CNC(=O)c1cc(S(N)(=O)=O)ccc1OC (stereo not given) [Sulpiride], which “HMGB1-induced TNF-alpha production” value (compound concentration: 3 uM) is on record?
A: 73%

Q: How did the “HMGB1-induced TNF-alpha production” value (compound concentration: 3 uM) turn out when CCN1CCCC1CNC(=O)c1cc(S(N)(=O)=O)ccc1OC (stereo not given) was run?
A: 93.1%

Q: O=C(O)c1cc2cc(F)ccc2[nH]1 [5-Fluoroindole-2-carboxylic acid] was tested. Which “HMGB1-induced TNF-alpha production” value (compound concentration: 3 uM) did it give?
A: 99.3%

Q: How did the “HMGB1-induced TNF-alpha production” value (compound concentration: 3 uM) turn out when CC12CC3CC(C)(C1)CC(N)(C3)C2 [Memantine Hydrochloride] was run?
A: 92.3%

Q: With CC12CC3CC(C)(C1)CC(N)(C3)C2 [Memantine] as the molecule, how does the “HMGB1-induced TNF-alpha production” value (compound concentration: 3 uM) read?
A: 120%

Q: For CC12CC3CC(C)(C1)CC(N)(C3)C2, which “HMGB1-induced TNF-alpha production” value (compound concentration: 3 uM) is on record?
A: 91 ± 4.5%

Q: For CC12CC3CC(C)(C1)CC(N)(C3)C2 [Memantine hydrochloride], which “HMGB1-induced TNF-alpha production” value (compound concentration: 3 uM) is on record?
A: 102%

Q: How did the “HMGB1-induced TNF-alpha production” value (compound concentration: 3 uM) turn out when Nc1ccc(S(=O)(=O)O)cc1.Nc1ccc(S(=O)(=O)O)cc1.[Zn] was run?
A: 87%

Q: How did the “HMGB1-induced TNF-alpha production” value (compound concentration: 3 uM) turn out when C#C[C@]1(O)CC[C@H]2[C@@H]3CCC4=Cc5oncc5C[C@]4(C)[C@H]3CC[C@@]21C [Danazol] was run?
A: 70.4 ± 7.4%

Q: With C#C[C@]1(O)CC[C@H]2[C@@H]3CCC4=Cc5oncc5C[C@]4(C)[C@H]3CC[C@@]21C as the molecule, how does the “HMGB1-induced TNF-alpha production” value (compound concentration: 3 uM) read?
A: 84.9%

Q: How did the “HMGB1-induced TNF-alpha production” value (compound concentration: 3 uM) turn out when O=C(Nc1ccc([N+](=O)[O-])cc1Cl)c1cc(Cl)ccc1O [Niclosamide] was run?
A: 271 ± 44%

Q: With O=C(Nc1ccc([N+](=O)[O-])cc1Cl)c1cc(Cl)ccc1O as the molecule, how does the “HMGB1-induced TNF-alpha production” value (compound concentration: 3 uM) read?
A: 241 ± 130%

Q: CCOc1ccc(Cc2nccc3cc(OCC)c(OCC)cc23)cc1OCC [Ethaverine hydrochloride] was tested. Which “HMGB1-induced TNF-alpha production” value (compound concentration: 3 uM) did it give?
A: 111%

Q: How did the “HMGB1-induced TNF-alpha production” value (compound concentration: 3 uM) turn out when CCOc1ccc(Cc2nccc3cc(OCC)c(OCC)cc23)cc1OCC was run?
A: 106%
